We go through five substances from US20240183842A1, “Supercharged Biovesicles and Methods of Use Thereof” (The General Hospital Corporation, priority 2021, published 2024).

The nature of series [1]: Ni-NTA resin pull-down of free recombinant His-tagged GFP proteins (EV-free). Conditions: suspensions of recombinant protein without EVs.
The test system of a further series is EVs from HEK293T cells. Briefly: Ni-NTA pull-down after incubation of recombinant proteins with purified EVs (EV association). It is filed as binding, human. Conditions: incubated with purified EVs from HEK293T cells, then Ni-NTA resin.
The subject of the next series is HEK293T EVs. Briefly: Enzymatic deglycosylation of EVs before +scProtein loading (Ni-NTA pull-down). The conditions noted are these: EV pretreatment with enzyme, compared to non-treated samples. It is filed as binding, human.

Take “+scGFP: positive supercharged eGFP, SEQ ID NO:2, recombinant His-tagged (Addgene #62937)”: in series [1], the “detectable fluorescence intensity captured by Ni-NTA resin” value is on record as 99.3±0.19%. Further, the “GFP fluorescence remained in suspension” value in the series on EVs from HEK293T cells is 55.9±6.8%. Heparinase I: in the series on HEK293T EVs, the “fold decrease of +scProtein fluorescence in the supernatant after Ni-NTA pull-down” value is recorded as 74.1 fold. Heparinase III: in the series with HEK293T EVs, the “fold decrease of +scProtein fluorescence in the supernatant after Ni-NTA pull-down” value is 84.70 fold. For the substance eGFP, the “detectable fluorescence intensity captured by Ni-NTA resin” value in series [1] is reported as 98.8±2.1%. Besides, in the series with EVs from HEK293T cells, the “GFP fluorescence remained in suspension” value was 96.1±7.1%.

Regarding “−scGFP: negative supercharged eGFP, SEQ ID NO:3, recombinant His-tagged (Addgene #62936)”, the “detectable fluorescence intensity captured by Ni-NTA resin” value in series [1] is recorded as 99.1±0.13%. Further, in the series on EVs from HEK293T cells, the “GFP fluorescence remained in suspension” value came to 99±0.3%.
